We go through five molecules from PMC6547012, “TCP Transcription Factors Associate with PHYTOCHROME INTERACTING FACTOR 4 and CRYPTOCHROME 1 to Regulate Thermomorphogenesis in Arabidopsis thaliana” (iScience, 2019).

Amino acid sequences for entries named in this document (tags omitted).
UniProt Q43125: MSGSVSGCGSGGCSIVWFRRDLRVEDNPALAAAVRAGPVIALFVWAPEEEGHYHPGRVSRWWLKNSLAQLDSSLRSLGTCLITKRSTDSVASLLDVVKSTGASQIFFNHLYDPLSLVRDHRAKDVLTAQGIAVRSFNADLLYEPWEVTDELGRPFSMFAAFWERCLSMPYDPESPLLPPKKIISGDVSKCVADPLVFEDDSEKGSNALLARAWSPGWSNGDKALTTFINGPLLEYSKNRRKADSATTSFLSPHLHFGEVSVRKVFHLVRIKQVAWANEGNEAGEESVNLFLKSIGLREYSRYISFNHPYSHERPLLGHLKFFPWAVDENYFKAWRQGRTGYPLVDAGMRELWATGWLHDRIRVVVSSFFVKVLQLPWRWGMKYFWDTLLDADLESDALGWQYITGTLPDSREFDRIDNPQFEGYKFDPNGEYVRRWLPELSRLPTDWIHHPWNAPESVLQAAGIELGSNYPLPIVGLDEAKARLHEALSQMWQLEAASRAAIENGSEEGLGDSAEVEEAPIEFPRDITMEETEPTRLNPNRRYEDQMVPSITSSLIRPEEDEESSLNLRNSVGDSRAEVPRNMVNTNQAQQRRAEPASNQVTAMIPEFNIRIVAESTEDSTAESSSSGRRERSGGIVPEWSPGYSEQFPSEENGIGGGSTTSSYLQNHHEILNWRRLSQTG

No constants are given. Whether binding was seen depends on the method and setting. Binding seen in cells or lysates may run through a third protein. Some results given as binding are weak or reduced against the parent protein; the word gives no strength. Sequences can lack the tags named with a protein.

The target of test [1] is T1, TCP17-nYFP (Arabidopsis thaliana) (UniProt Q9LEZ9).
T1 sequence: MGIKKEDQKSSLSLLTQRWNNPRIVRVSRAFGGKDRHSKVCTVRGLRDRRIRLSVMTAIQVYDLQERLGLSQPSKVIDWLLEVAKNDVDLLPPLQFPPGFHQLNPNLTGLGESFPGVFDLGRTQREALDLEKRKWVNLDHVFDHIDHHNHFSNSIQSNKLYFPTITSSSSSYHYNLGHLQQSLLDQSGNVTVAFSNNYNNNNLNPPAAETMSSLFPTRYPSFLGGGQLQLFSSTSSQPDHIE
Nature of the test: split reporter; BiFC of TCP17-nYFP and PIF4-cYFP in N. benthamiana leaves with or without co-expression of 35S::CRY1-HA.

Test [2] deals with T2, TCP17-FLAG (Arabidopsis thaliana) (UniProt Q9LEZ9).
T2 sequence: T1 sequence
The test can be described thus: co-IP; anti-FLAG affinity matrix (Sigma) on plant extracts, plants at 22°C or 28°C; blots with anti-FLAG and anti-CRY1.

Test [3] deals with T1, TCP17-nYFP (Arabidopsis thaliana). Nature of the test: split reporter; BiFC; Nicotiana benthamiana leaves co-infiltrated with Agrobacterium harboring nYFP and cYFP fusions; fluorescence in the nucleus.
Test [4] addresses T3, TCP5-nYFP (Arabidopsis thaliana) (UniProt Q9FME3).
T3 sequence: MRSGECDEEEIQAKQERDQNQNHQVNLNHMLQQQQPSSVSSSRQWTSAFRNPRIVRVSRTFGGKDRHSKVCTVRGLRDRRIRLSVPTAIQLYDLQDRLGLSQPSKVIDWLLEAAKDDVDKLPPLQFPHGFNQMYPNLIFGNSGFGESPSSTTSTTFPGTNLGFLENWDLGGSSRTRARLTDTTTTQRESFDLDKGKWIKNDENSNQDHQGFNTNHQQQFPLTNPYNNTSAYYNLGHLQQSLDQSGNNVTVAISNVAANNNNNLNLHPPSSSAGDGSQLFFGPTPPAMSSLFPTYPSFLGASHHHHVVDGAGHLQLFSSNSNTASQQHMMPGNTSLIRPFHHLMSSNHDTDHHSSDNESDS
The description is as above.

The target in test [5] is T4, PIF4-cYFP (Arabidopsis thaliana) (UniProt Q8W2F3).
T4 sequence: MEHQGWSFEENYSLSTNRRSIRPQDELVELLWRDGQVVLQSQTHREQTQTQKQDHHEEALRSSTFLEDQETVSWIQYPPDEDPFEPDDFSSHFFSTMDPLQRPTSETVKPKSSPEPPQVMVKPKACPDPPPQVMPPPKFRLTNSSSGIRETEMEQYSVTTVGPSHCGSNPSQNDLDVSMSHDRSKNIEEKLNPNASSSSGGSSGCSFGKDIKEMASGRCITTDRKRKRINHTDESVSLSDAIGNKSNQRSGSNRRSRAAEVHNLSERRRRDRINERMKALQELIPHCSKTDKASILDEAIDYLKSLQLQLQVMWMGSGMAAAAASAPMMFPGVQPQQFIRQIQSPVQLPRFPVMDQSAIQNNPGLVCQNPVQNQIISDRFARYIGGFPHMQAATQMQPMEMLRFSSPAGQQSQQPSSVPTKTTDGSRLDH
The description is as above.

Test [6] has as its target T4, PIF4-cYFP (Arabidopsis thaliana). The test can be described thus: split reporter; BiFC of TCP17-nYFP and PIF4-cYFP in N. benthamiana leaves with or without co-expression of 35S::CRY1-HA.

Consider CRY1-HA (from UniProt Q43125 1-681), for which the binding entry in test [1] is “binds”.

On to “CRY1 (in Arabidopsis plants, detected with anti-CRY1) (from UniProt Q43125 1-681)”, for which the binding result in test [2] is “binds”.

CRY1-cYFP (from UniProt Q43125 1-681): the binding entry in test [3] and in test [4] was “binds” throughout.

B1: TCP5-nYFP (protein, UniProt Q9FME3 1-360)
chain: T3 sequence
B1: the binding entry in test [5] is “binds”.

B2: MBP-TCP17 (natural protein, Arabidopsis thaliana, UniProt Q9LEZ9 1-242, looked up)
chain: T1 sequence
notes: TCP17, Arabidopsis thaliana; also called MBP-tagged TCP17; source: E. coli expressed and purified
In the case of B2, the binding result in test [6] and in test [5] was “binds” each time.
